Some of the results follow.
Key:
Test in all cases: log2 fold change, soluble protein after heating vs DMSO (PISA); higher = thermal stabilisation; K562 cells, 10 uM, 30 min; active = over 0.2 and 3.5 SD of the protein, either way, in both replicates (recomputed)
[1] = compound: CS(=O)(=O)c1ccc(-c2cnc(N)c(C(=O)Nc3ccccc3)n2)cc1
Method in brief: (§1)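 Aliquots of K562 cells (2×10^6 cells/mL) treated with 10 μM compound for 30 min were heated for 3 min over 48°C-58°C. After pooling and extraction in PBS with 0.5% NP-40 at 4°C, soluble protein from a 21,000xg, 90 min spin was quantified by TMTpro 16plex LC-MS/MS with channel sums equalised. Thermal stability is expressed against control samples, from duplicates, as a log2 fold change.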

Amino acid sequences for entries named in this document (tags omitted). A change or cut given only in a name is not applied to a line headed by its entry.
UniProt O95801: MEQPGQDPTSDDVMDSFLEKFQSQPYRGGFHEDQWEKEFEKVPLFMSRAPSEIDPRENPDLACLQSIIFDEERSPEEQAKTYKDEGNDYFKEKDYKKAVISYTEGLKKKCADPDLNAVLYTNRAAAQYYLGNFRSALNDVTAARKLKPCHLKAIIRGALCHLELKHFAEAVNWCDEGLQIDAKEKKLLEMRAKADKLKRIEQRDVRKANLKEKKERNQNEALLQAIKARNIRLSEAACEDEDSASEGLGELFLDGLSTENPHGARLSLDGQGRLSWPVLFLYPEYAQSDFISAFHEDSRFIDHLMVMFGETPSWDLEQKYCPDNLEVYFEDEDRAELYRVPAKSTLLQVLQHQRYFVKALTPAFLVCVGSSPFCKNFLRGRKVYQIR
UniProt Q9NX01: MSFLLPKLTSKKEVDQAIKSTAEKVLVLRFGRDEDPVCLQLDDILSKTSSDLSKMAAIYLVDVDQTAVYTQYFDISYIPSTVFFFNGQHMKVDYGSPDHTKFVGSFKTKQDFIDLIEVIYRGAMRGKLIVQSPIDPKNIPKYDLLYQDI
UniProt Q14157: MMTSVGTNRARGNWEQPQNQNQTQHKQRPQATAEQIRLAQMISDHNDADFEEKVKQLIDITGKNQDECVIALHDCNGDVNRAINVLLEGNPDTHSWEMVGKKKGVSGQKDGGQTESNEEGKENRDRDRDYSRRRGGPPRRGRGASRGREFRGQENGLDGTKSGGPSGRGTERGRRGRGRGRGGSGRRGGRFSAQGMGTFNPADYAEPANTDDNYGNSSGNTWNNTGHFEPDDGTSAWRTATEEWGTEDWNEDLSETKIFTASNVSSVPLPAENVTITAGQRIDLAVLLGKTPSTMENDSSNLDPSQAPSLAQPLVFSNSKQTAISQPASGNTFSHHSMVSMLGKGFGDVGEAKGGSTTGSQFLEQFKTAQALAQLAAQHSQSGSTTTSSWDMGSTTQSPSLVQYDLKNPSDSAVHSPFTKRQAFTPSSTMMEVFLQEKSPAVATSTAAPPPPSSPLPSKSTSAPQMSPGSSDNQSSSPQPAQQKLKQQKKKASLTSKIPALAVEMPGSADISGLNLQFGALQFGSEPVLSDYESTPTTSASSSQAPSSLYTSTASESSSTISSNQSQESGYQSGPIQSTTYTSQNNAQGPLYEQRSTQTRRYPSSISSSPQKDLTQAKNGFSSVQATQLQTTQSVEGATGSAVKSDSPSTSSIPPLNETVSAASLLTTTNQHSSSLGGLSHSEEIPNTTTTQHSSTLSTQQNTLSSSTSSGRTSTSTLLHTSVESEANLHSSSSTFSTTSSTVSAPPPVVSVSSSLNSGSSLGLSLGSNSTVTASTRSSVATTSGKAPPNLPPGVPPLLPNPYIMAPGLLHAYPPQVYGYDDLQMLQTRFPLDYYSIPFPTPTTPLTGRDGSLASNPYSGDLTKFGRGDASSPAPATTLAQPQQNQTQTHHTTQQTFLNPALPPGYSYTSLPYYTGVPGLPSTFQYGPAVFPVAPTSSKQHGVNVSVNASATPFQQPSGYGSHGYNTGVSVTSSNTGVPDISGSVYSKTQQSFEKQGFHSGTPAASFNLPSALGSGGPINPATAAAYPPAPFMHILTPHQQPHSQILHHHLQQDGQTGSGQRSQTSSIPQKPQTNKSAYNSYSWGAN
UniProt Q16763: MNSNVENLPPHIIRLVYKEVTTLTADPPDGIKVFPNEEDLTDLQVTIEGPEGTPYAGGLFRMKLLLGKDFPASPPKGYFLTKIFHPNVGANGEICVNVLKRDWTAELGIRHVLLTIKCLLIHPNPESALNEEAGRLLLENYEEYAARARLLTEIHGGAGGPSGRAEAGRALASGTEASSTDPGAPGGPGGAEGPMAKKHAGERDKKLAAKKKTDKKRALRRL
UniProt Q6NXR4: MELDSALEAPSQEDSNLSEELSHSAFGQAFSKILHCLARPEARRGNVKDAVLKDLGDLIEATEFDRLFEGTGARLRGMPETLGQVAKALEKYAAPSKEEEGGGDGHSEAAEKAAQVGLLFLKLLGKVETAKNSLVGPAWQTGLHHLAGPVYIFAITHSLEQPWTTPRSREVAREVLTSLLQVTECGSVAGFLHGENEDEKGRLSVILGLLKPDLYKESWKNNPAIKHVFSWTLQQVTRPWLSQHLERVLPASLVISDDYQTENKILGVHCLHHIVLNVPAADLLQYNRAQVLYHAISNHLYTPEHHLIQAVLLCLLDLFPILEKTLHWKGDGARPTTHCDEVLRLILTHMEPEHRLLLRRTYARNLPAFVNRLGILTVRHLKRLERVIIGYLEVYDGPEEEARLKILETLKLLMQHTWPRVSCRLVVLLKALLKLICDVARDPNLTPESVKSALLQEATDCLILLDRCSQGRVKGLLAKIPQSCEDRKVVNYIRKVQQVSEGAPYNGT
UniProt Q16881, whole entry, looked up: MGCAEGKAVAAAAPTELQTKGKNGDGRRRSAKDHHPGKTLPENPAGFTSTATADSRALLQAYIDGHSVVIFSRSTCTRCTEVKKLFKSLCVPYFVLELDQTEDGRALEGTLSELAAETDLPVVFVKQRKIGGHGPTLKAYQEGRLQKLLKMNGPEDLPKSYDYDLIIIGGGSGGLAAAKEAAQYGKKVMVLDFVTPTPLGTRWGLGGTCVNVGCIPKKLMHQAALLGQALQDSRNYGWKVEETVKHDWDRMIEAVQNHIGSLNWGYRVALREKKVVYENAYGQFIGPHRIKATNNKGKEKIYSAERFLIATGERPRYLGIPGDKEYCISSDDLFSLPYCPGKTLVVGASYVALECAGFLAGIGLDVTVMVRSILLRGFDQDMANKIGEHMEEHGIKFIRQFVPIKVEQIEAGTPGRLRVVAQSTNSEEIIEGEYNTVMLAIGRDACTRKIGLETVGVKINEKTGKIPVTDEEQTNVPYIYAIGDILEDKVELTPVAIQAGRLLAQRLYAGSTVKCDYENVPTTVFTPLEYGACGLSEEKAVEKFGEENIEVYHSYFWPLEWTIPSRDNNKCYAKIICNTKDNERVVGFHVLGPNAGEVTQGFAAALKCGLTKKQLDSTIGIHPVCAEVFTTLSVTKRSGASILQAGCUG
UniProt O75896: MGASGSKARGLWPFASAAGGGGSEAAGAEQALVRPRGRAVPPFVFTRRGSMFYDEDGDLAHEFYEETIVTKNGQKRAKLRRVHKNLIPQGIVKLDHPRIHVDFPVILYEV
UniProt Q86TV6: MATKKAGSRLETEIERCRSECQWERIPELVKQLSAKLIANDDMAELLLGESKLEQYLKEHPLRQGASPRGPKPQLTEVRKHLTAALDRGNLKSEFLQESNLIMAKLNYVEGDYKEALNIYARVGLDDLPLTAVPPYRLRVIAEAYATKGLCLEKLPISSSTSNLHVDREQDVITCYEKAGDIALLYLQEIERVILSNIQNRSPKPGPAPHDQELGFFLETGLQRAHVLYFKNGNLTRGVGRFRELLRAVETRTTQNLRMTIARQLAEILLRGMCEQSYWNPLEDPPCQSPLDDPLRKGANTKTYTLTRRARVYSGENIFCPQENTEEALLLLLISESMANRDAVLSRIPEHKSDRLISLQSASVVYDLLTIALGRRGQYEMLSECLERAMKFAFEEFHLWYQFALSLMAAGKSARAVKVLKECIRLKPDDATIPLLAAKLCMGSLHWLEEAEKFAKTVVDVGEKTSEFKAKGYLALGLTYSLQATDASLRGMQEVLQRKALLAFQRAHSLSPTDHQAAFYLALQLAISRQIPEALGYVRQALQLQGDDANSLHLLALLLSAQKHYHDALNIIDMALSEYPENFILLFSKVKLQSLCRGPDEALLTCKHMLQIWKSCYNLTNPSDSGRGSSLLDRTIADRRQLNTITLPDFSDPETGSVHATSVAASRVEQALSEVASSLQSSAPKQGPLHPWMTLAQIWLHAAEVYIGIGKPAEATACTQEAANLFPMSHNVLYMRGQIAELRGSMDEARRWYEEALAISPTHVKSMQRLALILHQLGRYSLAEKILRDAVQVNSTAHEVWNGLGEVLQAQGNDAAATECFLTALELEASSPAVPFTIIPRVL

[2] = compound: C[C@@H](Oc1cc(-c2cnn(C3CCNCC3)c2)cnc1N)c1c(Cl)ccc(F)c1Cl [crizotinib]
Method in brief: as §1

[3] = compound: C[C@@H]1COCCN1C2=NC(=NC(=C2)C3(CC3)S(=O)(=O)C)C4=C5C=CNC5=CC=C4
Method in brief: as §1

[4] = compound: C[C@H](C1=CC=C(C=C1)C(=O)NC2=C3C=CNC3=NC=C2)N
Method in brief: as §1

[5] = compound: Cc1cc(Nc2cc(CN3CCOCC3)c3nc(C)c(Cc4ccc(Cl)cc4F)n3n2)n[nH]1 [gandotinib]
Method in brief: as §1

[6] = compound: Cc1cc(SCc2sc(-c3ccc(C(F)(F)F)cc3)nc2C)ccc1OCC(=O)O
Method in brief: as §1

[7] = compound: Cc1ccc(-n2nc(C(C)(C)C)cc2NC(=O)Nc2ccc(OCCN3CCOCC3)c3ccccc23)cc1 [doramapimod]
Method in brief: as §1

[8] = compound: Cc1ccc(C(=O)N(CCCN)[C@@H](c2nc3cc(Cl)ccc3c(=O)n2Cc2ccccc2)C(C)C)cc1 [ispinesib]
Method in brief: as §1

[9] = compound: Cc1ccc(NC(=O)c2ccc(CN3CC[C@H](N(C)C)C3)c(C(F)(F)F)c2)cc1Nc1nccc(-c2cncnc2)n1 [bafetinib]
Method in brief: as §1

[10] = compound: Cc1cccc(CC(=O)N2CCc3c2ccc(-c2cn(C)c4ncnc(N)c24)c3F)n1
Method in brief: as §1

[11] = compound: Cc1cn(-c2cc(NC(=O)c3ccc(C)c(Nc4nccc(-c5cccnc5)n4)c3)cc(C(F)(F)F)c2)cn1 [nilotinib]
Method in brief: as §1

[12] = compound: Cc1nc(Nc2n[nH]c3c2CN(C(=O)N[C@H](CN(C)C)c2ccccc2)C3(C)C)c2sccc2n1
Method in brief: as §1

[13] = compound: Cc1nc(Nc2ncc(C(=O)Nc3c(C)cccc3Cl)s2)cc(N2CCN(CCO)CC2)n1 [dasatinib]
Method in brief: as §1

[14] = compound: Cc1ncc(-c2ccnc(Nc3ccc(S(C)(=O)=O)cc3)n2)n1C(C)C
Method in brief: as §1

[15] = compound: Cn1cc(-c2ccc3c(c2)CCN3C(=O)Cc2cccc(C(F)(F)F)c2)c2c(N)ncnc21
Method in brief: as §1

[16] = compound: Cn1cc(-c2ccc3nnc(C(F)(F)c4ccc5ncccc5c4)n3n2)cn1
Method in brief: as §1

[17] = compound: Cn1cncc1[C@@](N)(c1ccc(Cl)cc1)c1ccc2c(c1)c(-c1cccc(Cl)c1)cc(=O)n2C [tipifarnib]
Method in brief: as §1

[18] = compound: FC(F)(F)c1ccc(/C=C/c2nc(COc3ccc(CCCCn4ccnn4)cc3)co2)cc1 [mubritinib]
Method in brief: as §1

[19] = compound: C[C@H](Nc1ncnc2nc[nH]c12)c1cc2cccc(Cl)c2c(=O)n1-c1ccccc1 [duvelisib]
Method in brief: as §1

[20] = compound: Cc1cc(Nc2cc(N3CCN(C)CC3)nc(Sc3ccc(NC(=O)C4CC4)cc3)n2)n[nH]1 [tozasertib]
Method in brief: as §1

## TTC4 (UniProt O95801)
[1]
  log2 fold change: inactive: 0.046
[2]
  log2 fold change: inactive: -0.001
[3]
  log2 fold change: inactive: 0.017
[4]
  log2 fold change: inactive: 0.029
[5]
  log2 fold change: inactive: -0.025
[6]
  log2 fold change: inactive: 0.134
[7]
  log2 fold change: inactive: -0.028
[8]
  log2 fold change: inactive: 0.108
[9]
  log2 fold change: inactive: 0.036
[10]
  log2 fold change: inactive: 0.116
[11]
  log2 fold change: inactive: -0.034
[12]
  log2 fold change: inactive: -0.094
[13]
  log2 fold change: inactive: -0.137
[14]
  log2 fold change: inactive: 0.003
[15]
  log2 fold change: inactive: 0.019
[16]
  log2 fold change: inactive: 0
[17]
  log2 fold change: inactive: -0.077
[18]
  log2 fold change: inactive: 0.061

## TXNL4B (UniProt Q9NX01)
[1]
  log2 fold change: inactive: 0.22
[2]
  log2 fold change: inactive: 0.309
[4]
  log2 fold change: inactive: 0.008
[5]
  log2 fold change: inactive: -0.024
[6]
  log2 fold change: inactive: 0.054
[7]
  log2 fold change: inactive: 0.037
[8]
  log2 fold change: inactive: -0.017
[9]
  log2 fold change: inactive: -0.1
[10]
  log2 fold change: inactive: 0.005
[11]
  log2 fold change: inactive: 0.003
[12]
  log2 fold change: inactive: -0.041
[13]
  log2 fold change: inactive: -0.042
[14]
  log2 fold change: inactive: 0.01
[15]
  log2 fold change: inactive: 0.007
[16]
  log2 fold change: inactive: 0.028
[17]
  log2 fold change: inactive: 0.008
[18]
  log2 fold change: inactive: 0.17

## UBAP2L isoform 5 (UniProt Q14157)
[1]
  log2 fold change: inactive: -0.028
[2]
  log2 fold change: inactive: 0.051
[3]
  log2 fold change: inactive: -0.07
[4]
  log2 fold change: inactive: -0.007
[5]
  log2 fold change: inactive: 0.007
[6]
  log2 fold change: inactive: 0.016
[7]
  log2 fold change: inactive: -0.038
[8]
  log2 fold change: inactive: 0.026
[9]
  log2 fold change: inactive: -0.044
[10]
  log2 fold change: inactive: -0.02
[11]
  log2 fold change: inactive: -0.003
[12]
  log2 fold change: inactive: -0.015
[13]
  log2 fold change: inactive: 0.005
[14]
  log2 fold change: inactive: 0.007
[15]
  log2 fold change: inactive: 0.011
[16]
  log2 fold change: inactive: -0.003
[17]
  log2 fold change: inactive: -0.028
[18]
  log2 fold change: inactive: 0.024

## TUBA4A (UniProt C9JJQ8)
[1]
  log2 fold change: inactive: 0.009
[2]
  log2 fold change: inactive: -0.019
[4]
  log2 fold change: inactive: -0.159
[6]
  log2 fold change: inactive: 0.108
[7]
  log2 fold change: inactive: -0.046
[9]
  log2 fold change: inactive: 0.116
[13]
  log2 fold change: inactive: -0.082
[15]
  log2 fold change: inactive: 0.012
[17]
  log2 fold change: inactive: 0.047

## UBA52 (UniProt P62987)
[1]
  log2 fold change: inactive: -0.065
[2]
  log2 fold change: inactive: -0.02
[3]
  log2 fold change: active: -0.909
[4]
  log2 fold change: inactive: 0.364
[5]
  log2 fold change: inactive: 0.44
[7]
  log2 fold change: inactive: 0.118
[8]
  log2 fold change: inactive: -0.165
[9]
  log2 fold change: inactive: 0.285
[10]
  log2 fold change: inactive: -0.001
[15]
  log2 fold change: inactive: -0.343
[16]
  log2 fold change: inactive: -0.16
[17]
  log2 fold change: inactive: 0.247
[18]
  log2 fold change: inactive: -0.115

## UBE2S (UniProt Q16763)
[1]
  log2 fold change: inactive: 0.014
[2]
  log2 fold change: inactive: 0.079
[3]
  log2 fold change: inactive: 0.003
[4]
  log2 fold change: inactive: -0.067
[5]
  log2 fold change: inactive: -0.015
[6]
  log2 fold change: inactive: 0.002
[7]
  log2 fold change: inactive: 0.024
[8]
  log2 fold change: inactive: 0.1
[9]
  log2 fold change: inactive: -0.025
[10]
  log2 fold change: inactive: -0.08
[11]
  log2 fold change: inactive: -0.008
[12]
  log2 fold change: inactive: -0.017
[13]
  log2 fold change: inactive: 0.001
[14]
  log2 fold change: inactive: 0.04
[15]
  log2 fold change: inactive: -0.002
[16]
  log2 fold change: inactive: -0.037
[17]
  log2 fold change: inactive: -0.072
[18]
  log2 fold change: inactive: 0.002

## TTI2 (UniProt Q6NXR4)
[1]
  log2 fold change: inactive: -0.066
[2]
  log2 fold change: inactive: -0.155
[3]
  log2 fold change: inactive: 0.028
[4]
  log2 fold change: inactive: 0.121
[6]
  log2 fold change: inactive: 0.142
[7]
  log2 fold change: inactive: 0.013
[8]
  log2 fold change: inactive: -0.204
[9]
  log2 fold change: inactive: 0.06
[11]
  log2 fold change: inactive: -0.028
[12]
  log2 fold change: inactive: -0.068
[13]
  log2 fold change: inactive: -0.005
[14]
  log2 fold change: inactive: 0.077
[15]
  log2 fold change: inactive: -0.017
[16]
  log2 fold change: inactive: -0.007
[17]
  log2 fold change: inactive: -0.059
[18]
  log2 fold change: inactive: -0.063

## TXNRD1 (UniProt Q16881)
[1]
  log2 fold change: inactive: 0.075
[2]
  log2 fold change: inactive: -0.043
[3]
  log2 fold change: inactive: 0.079
[4]
  log2 fold change: inactive: -0.053
[5]
  log2 fold change: inactive: -0.045
[6]
  log2 fold change: inactive: -0.007
[7]
  log2 fold change: inactive: -0.028
[8]
  log2 fold change: inactive: -0.009
[9]
  log2 fold change: inactive: -0.012
[10]
  log2 fold change: inactive: -0.011
[11]
  log2 fold change: inactive: 0.097
[12]
  log2 fold change: inactive: -0.013
[13]
  log2 fold change: inactive: -0.013
[14]
  log2 fold change: inactive: -0.002
[15]
  log2 fold change: inactive: 0.067
[16]
  log2 fold change: inactive: 0.021
[17]
  log2 fold change: inactive: -0.107
[18]
  log2 fold change: active: 0.225

## TUSC2 (UniProt O75896)
[1]
  log2 fold change: inactive: 0.041
[2]
  log2 fold change: inactive: 0.027
[3]
  log2 fold change: inactive: 0.241
[7]
  log2 fold change: inactive: -0.056
[9]
  log2 fold change: inactive: -0.031
[11]
  log2 fold change: inactive: 0.107
[12]
  log2 fold change: inactive: -0.101
[14]
  log2 fold change: inactive: 0.008
[18]
  log2 fold change: inactive: 0.061

## TTC7B isoform 2 (UniProt Q86TV6)
[1]
  log2 fold change: inactive: 0.487
[2]
  log2 fold change: inactive: 0.008
[4]
  log2 fold change: inactive: 0.049
[19]
  log2 fold change: inactive: 0.13
[5]
  log2 fold change: inactive: -0.154
[20]
  log2 fold change: inactive: -0.029
[6]
  log2 fold change: inactive: 0.169
[7]
  log2 fold change: inactive: 0.021
[8]
  log2 fold change: inactive: 0.003
[9]
  log2 fold change: inactive: -0.201
[10]
  log2 fold change: inactive: -0.021
[11]
  log2 fold change: inactive: 0.052
[12]
  log2 fold change: inactive: -0.118
[13]
  log2 fold change: inactive: -0.09
[14]
  log2 fold change: inactive: -0.023
[15]
  log2 fold change: inactive: -0.037
[16]
  log2 fold change: inactive: -0.07
[17]
  log2 fold change: inactive: 0.126

— the supplement of paper PMC10849652
